The values below come from publication PMC3469465, “Muscle-Specific Splicing Factors ASD-2 and SUP-12 Cooperatively Switch Alternative Pre-mRNA Processing Patterns of the ADF/Cofilin Gene in Caenorhabditis elegans”.

The series has as its system GST-ASD-2b + His-SUP-12. Put plainly: pull-down. The settings on record: 20 mM HEPES-KOH pH 7.9, 150 mM KCl, 5% glycerol (EMSA only), 1% Triton X-100, 1 mM DTT, 0.1 mM PMSF, 100 ng/ul E. coli tRNA, 50 ng/ul BSA, 30 min, 20 C, recombinant protein.
Setting [1] is: RNA less effectively enhances ASD-2b/SUP-12 pull-down.

For at least one entry, the source does not settle the construct or the ends of the probe. Weaker means in comparison with the reference protein, sequence or condition of that experiment.

Regarding “UUUUUGCCUAACCUAACCUAACCUAUGUGUGCCUGUUUU [unc-60-I1A-WT]”, the binding result (RNA enhances SUP-12 pull-down by GST-ASD-2b dose-dependently) is on record as “binds”. For “UUUUUGCCUAACCUAACCUAACCUAUAUAUACCUGUUUU [unc-60-I1A-M2]”, the binding result under setting [1] is “binds more weakly”. As to “UUUUUGCCAAACCAAACCAAACCUAUGUGUGCCUGUUUU [unc-60-I1A-M1]”, the binding result under setting [1] is listed as “binds more weakly”.
